Results as given in paper PMC6029062.
No constants are given. Whether binding was seen depends on the method and setting. For some of these results: Binding seen in cells or lysates may run through a third protein. Sequences can lack the tags named with a protein. Each block holds one molecule with its values, some of them ahead of it.

Experiments:
GST-fused integrin β7 CT = biological target: T1, GST-fused integrin β7 CT (UniProt P26010); assay: pull-down; purified GST-fused β CT proteins on Glutathione Sepharose 4B beads, incubated with lysates of HUVECs expressing EGFP-β3-endonexin overnight at 4 °C; Western blotting of the precipitates; only the target purified
T1 sequence: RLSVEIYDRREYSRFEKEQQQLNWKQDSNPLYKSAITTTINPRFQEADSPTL

[1] = biological target: β3-endonexin (yeast two-hybrid fusion in pGBKT7); assay: two-hybrid; Matchmaker Gold Yeast Two-hybrid system; β3-endonexin or kindlin-2 in pGBKT7, integrin β CTs in pGADT7; serial dilution on SD-3 selection media (−Leu/−Trp/−His)

Molecule: EGFP-β3-endonexin
- binding (GST-fused integrin β7 CT): no binding

Molecule: KLLMIIHDRREFAKFEKEKMNAKWDTGENPIYKSAVTTVVNPKYEGK (domain or fragment) [integrin β1 CT (yeast two-hybrid fusion in pGADT7)]
- binding [1]: no binding

Other lines, results leading:

- binding [1]: no binding
Molecule: KALIHLSDLREYRRFEKEKLKSQWNNDNPLFKSATTTVMNPKFAES (domain or fragment) [integrin β2 CT (yeast two-hybrid fusion in pGADT7)]

- binding [1]: no binding
B1: integrin β7 CT (yeast two-hybrid fusion in pGADT7) (domain or fragment, UniProt P26010 747-798)
chain: T1 sequence
